Laboratory results as given in the supplement of paper PMC6411743.
± gives the standard deviation of the averaged measurements. The entries are a selection whose mix differs from that of the whole data set.

Protein sequences, listed by entry. Tags and fused reporters are not part of them. Lines headed by an entry give the natural chain unless they say otherwise; changes in a name come on top.
UniProt Q9BQ39: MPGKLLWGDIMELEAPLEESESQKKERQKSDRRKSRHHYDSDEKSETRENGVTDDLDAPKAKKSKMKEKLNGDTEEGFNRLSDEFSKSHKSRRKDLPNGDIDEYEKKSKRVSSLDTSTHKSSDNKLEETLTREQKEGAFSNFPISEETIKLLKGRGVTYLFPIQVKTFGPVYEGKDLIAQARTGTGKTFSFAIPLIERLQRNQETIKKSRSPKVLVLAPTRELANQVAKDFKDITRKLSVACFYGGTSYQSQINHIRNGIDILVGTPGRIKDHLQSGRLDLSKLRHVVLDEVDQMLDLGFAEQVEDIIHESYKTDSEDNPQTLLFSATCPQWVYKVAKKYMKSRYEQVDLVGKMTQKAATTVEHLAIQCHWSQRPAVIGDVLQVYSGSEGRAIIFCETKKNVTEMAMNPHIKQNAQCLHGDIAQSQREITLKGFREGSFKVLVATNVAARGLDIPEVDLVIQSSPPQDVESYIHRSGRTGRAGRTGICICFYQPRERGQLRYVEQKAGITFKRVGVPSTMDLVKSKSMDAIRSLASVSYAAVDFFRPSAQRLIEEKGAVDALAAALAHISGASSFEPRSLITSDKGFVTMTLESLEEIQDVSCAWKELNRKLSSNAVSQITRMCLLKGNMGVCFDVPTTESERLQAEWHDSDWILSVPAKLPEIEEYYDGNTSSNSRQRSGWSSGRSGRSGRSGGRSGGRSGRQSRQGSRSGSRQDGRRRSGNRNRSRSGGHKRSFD
UniProt Q9BU76: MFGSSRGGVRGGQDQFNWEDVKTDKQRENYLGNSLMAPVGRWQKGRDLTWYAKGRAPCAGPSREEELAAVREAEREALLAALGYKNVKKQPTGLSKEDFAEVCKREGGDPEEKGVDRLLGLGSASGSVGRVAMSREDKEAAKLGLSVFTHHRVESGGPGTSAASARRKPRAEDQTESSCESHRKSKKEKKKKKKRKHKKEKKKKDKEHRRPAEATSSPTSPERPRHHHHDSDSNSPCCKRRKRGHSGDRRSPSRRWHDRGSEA
UniProt Q9BUB5: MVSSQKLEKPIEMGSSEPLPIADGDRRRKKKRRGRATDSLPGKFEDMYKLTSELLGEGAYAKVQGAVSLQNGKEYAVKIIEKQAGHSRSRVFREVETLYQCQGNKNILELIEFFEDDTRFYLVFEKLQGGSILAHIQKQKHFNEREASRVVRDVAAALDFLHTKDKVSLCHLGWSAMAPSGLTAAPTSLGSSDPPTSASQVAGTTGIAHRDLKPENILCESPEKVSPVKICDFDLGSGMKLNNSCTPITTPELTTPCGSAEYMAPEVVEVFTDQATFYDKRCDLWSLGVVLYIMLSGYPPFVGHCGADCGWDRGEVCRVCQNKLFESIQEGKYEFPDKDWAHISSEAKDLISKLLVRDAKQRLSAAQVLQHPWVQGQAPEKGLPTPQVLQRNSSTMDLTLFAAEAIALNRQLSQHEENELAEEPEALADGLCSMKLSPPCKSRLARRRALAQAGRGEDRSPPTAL
UniProt Q9BT09: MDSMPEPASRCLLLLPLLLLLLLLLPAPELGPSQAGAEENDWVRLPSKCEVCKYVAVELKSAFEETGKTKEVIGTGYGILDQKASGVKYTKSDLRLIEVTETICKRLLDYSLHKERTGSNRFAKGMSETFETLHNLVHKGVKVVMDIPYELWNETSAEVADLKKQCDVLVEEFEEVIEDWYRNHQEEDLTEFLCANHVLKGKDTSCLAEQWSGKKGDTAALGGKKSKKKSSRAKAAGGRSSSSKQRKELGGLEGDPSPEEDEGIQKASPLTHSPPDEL
UniProt Q9BTV5: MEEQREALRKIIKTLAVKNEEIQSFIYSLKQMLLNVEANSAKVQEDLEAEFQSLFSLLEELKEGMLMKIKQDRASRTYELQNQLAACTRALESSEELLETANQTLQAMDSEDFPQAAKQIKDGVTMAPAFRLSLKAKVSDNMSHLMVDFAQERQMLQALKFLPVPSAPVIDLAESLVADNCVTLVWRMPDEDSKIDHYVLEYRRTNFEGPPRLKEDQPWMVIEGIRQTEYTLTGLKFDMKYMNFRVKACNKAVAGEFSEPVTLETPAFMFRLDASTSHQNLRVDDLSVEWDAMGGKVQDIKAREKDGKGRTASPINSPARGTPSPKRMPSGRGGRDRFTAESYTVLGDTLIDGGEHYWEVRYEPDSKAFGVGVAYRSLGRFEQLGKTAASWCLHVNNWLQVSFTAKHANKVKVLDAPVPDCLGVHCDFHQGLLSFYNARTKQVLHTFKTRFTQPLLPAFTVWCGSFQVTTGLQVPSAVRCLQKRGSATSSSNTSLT
UniProt Q9BYJ9: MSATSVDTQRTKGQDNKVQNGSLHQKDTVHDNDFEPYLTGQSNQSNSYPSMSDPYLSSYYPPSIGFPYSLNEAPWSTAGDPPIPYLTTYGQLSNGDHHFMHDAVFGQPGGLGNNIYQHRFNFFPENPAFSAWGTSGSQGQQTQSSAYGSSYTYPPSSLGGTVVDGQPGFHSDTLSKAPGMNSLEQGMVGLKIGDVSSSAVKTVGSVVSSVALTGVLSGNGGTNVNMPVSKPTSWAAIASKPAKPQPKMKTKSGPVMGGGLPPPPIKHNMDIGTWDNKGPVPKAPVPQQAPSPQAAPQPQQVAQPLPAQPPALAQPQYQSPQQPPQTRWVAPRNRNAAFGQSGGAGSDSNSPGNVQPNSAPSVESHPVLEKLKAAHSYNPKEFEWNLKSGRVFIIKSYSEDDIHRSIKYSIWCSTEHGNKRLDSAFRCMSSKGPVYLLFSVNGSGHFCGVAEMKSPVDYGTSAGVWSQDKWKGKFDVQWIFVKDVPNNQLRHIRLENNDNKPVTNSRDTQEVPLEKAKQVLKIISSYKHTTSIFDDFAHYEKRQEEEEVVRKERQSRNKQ
UniProt Q9BW85: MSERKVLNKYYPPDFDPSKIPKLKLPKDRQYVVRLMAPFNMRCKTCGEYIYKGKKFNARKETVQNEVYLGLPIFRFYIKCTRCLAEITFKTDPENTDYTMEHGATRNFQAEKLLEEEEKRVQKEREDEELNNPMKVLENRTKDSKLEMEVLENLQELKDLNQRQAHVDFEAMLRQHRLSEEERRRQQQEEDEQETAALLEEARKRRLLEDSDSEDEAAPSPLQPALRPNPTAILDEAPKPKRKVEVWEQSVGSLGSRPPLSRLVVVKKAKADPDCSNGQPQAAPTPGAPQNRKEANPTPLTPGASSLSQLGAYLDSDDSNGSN
UniProt Q9BX95: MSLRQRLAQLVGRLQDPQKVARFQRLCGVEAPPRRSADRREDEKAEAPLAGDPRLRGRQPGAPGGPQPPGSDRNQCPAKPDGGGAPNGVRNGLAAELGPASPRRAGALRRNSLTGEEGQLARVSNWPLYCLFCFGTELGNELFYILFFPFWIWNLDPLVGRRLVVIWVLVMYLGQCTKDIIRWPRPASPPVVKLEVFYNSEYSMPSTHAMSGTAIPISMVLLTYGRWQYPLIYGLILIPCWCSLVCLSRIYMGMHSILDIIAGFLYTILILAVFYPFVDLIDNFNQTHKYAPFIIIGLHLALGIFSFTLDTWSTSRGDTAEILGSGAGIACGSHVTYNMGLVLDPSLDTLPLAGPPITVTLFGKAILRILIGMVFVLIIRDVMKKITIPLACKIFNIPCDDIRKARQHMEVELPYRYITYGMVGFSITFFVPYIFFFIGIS
UniProt Q9BUK6: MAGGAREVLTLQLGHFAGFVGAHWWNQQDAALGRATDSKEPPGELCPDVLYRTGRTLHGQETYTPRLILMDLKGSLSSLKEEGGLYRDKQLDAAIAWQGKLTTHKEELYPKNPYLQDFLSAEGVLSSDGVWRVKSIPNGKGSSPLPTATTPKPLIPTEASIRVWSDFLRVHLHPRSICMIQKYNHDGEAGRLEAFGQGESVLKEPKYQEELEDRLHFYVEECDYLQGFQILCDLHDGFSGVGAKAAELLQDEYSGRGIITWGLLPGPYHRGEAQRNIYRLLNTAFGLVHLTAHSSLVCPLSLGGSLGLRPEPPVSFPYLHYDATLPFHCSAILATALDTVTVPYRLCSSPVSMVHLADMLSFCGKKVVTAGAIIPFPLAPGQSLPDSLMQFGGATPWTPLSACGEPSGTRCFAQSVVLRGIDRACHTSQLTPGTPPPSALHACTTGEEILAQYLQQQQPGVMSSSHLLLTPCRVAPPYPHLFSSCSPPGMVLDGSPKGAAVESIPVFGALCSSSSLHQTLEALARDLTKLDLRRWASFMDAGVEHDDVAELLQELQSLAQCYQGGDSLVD
UniProt Q99816: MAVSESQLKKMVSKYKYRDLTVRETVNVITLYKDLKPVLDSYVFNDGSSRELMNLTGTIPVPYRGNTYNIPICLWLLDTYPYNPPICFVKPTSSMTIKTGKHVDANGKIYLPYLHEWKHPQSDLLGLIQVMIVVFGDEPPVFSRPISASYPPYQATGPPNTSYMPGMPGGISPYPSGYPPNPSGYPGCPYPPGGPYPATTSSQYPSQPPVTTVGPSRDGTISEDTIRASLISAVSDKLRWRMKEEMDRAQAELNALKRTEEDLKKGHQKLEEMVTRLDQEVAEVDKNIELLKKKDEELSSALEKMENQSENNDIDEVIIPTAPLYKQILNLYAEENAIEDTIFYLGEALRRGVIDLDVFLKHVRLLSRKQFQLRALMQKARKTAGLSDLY
UniProt Q9BW19: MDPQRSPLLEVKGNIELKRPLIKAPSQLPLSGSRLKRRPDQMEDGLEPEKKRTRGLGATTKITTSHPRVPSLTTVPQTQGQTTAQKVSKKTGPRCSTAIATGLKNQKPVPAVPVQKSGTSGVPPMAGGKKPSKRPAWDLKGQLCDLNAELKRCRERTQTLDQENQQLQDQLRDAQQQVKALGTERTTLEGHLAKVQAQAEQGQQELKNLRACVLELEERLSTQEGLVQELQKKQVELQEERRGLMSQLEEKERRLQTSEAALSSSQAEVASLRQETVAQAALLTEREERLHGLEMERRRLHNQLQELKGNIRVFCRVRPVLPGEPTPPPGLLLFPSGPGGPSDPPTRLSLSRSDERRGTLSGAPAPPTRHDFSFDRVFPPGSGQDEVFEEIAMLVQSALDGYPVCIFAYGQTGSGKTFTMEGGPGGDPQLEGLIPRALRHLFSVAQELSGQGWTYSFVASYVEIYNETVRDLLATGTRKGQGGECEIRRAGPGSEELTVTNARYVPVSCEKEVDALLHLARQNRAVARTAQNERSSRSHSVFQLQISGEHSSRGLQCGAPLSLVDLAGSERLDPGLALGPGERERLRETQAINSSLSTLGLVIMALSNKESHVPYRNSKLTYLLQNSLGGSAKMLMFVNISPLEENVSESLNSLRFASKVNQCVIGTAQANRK
UniProt Q9BTY7: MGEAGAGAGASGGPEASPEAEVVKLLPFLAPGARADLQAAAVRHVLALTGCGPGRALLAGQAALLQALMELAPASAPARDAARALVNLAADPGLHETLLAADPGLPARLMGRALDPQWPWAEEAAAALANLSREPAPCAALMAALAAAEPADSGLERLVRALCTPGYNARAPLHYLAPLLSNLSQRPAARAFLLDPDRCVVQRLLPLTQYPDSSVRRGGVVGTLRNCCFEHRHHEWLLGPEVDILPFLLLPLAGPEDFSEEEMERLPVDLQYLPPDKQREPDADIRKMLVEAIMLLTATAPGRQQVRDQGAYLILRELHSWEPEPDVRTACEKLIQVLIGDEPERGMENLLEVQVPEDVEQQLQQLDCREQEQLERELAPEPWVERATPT
UniProt Q9BTU6: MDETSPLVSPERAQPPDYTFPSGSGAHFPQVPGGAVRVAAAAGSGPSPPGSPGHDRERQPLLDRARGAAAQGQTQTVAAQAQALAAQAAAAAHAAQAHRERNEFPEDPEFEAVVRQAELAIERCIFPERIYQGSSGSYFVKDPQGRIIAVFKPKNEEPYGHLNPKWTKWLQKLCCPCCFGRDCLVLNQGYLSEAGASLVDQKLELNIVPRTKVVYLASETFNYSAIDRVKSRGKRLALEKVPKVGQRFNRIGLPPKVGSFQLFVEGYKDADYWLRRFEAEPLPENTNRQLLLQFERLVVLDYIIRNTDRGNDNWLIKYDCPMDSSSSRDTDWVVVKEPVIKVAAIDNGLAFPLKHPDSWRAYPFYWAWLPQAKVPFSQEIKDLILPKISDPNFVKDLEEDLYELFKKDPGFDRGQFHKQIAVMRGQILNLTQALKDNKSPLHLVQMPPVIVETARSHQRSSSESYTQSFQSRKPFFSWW
UniProt Q99615: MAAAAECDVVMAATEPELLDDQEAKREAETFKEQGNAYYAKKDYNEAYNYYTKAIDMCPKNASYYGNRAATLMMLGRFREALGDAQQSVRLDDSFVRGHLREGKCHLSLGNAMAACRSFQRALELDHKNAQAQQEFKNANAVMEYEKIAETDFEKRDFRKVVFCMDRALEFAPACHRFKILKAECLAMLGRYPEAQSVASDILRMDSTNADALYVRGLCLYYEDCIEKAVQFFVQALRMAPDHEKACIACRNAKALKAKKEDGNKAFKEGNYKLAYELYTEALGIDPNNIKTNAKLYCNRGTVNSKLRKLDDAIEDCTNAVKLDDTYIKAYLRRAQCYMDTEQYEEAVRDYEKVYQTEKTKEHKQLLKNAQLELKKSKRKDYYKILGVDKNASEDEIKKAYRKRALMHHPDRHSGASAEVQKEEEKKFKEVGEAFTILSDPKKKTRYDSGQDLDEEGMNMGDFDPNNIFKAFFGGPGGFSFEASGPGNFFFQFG

compound: Nc1ncnc2c1ncn2[C@@H]1O[C@H](COP(=O)(O)OP(=O)(O)NP(=O)(O)O)[C@@H](O)[C@H]1O [adenylyl imidodiphosphate]; assay: NP40-soluble protein abundance relative to vehicle (solubility fold change) (ratio); higher = more soluble protein in presence of AMP-PNP; details: concentration: 8mM
How it was run: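 Crude Jurkat lysate, prepared by Dounce homogenisation, was exposed to eight concentrations from 0.1 to 10 mM for 10 min at room temperature and then 3 min at 37 °C. Solubilisation used 0.8% NP40 with benzonase for 60 min at 4 °C, followed by ultracentrifugation and TMT labelling of the supernatant for LC-MS/MS. After vsn normalisation of intensities, each value is the fold change against the detergent-processed vehicle within each replicate, across three independent experiments.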

Target	NP40-soluble protein abundance
UniProt Q9BQ39 and related entries	1.52 ± 0.097
UniProt Q9BT25 and related entries	0.958 ± 0.027
TRMT61B (UniProt Q9BVS5)	1 ± 0.06
UniProt Q9BQI3 and related entries	0.989 ± 0.018
UniProt Q9BU76 and related entries	0.99 ± 0.031
UniProt Q9BUB5 and related entries	1.05 ± 0.023
CNPY3 (UniProt Q9BT09)	0.946 ± 0.018
CCT7 (UniProt Q99832)	0.946 ± 0.092
UniProt Q9BXI6 and related entries	1 ± 0.015
UniProt Q96S55 and related entries	0.933 ± 0.056
UniProt Q9BWS9 and related entries	0.9924 ± 0.0078
UniProt Q9BTV5 and related entries	0.986 ± 0.041
UniProt Q96ST2 and related entries	1.03 ± 0.042
MRPS26 (UniProt Q9BYN8)	0.882 ± 0.071
YTHDF1 (UniProt Q9BYJ9)	0.997 ± 0.039
UniProt Q9BW85	1.03 ± 0.042
SGPP1 (UniProt Q9BX95)	1.04 ± 0.049
UniProt Q9BUK6 and related entries	0.991 ± 0.025
MAK16 (UniProt Q9BXY0)	1.1 ± 0.018
TSG101 (UniProt Q99816)	0.959 ± 0.047
UniProt Q9BPZ3 and related entries	0.929 ± 0.014
POP1 (UniProt Q99575)	0.943 ± 0.053
KIFC1 (UniProt Q9BW19)	1.07 ± 0.032
UniProt Q9BTY7	0.923 ± 0.018
PI4K2A (UniProt Q9BTU6)	0.9894 ± 0.0057
DNAJC7 (UniProt Q99615)	1.02 ± 0.013

An excerpt of the results above, for reference:
Target	NP40-soluble protein abundance
UniProt Q9BTY7	0.923 ± 0.018
PI4K2A (UniProt Q9BTU6)	0.9894 ± 0.0057
